Publication PMC11428569
No constants are given. Whether binding was seen depends on the method and setting. Binding seen in cells or lysates may run through a third protein. Some binding calls cover weakened binding; strength is not graded here.

Chains of the proteins cited; added tags and fusions are not shown. Residues count along the entry.
UniProt P37173, residues 23-567: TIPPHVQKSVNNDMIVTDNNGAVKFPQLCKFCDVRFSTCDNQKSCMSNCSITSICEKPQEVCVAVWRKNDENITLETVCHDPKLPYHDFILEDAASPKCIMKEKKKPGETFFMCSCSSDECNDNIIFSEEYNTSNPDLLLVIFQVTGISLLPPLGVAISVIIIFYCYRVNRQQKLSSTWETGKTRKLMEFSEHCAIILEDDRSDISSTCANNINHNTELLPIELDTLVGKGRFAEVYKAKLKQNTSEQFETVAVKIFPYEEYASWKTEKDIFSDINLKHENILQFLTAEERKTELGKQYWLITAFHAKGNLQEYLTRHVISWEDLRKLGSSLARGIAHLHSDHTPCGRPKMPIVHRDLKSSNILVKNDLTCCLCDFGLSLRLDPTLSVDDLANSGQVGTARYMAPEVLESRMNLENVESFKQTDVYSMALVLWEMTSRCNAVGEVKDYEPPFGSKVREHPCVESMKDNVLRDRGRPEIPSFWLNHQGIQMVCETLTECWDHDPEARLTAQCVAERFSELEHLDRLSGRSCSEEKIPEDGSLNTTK
UniProt P21926: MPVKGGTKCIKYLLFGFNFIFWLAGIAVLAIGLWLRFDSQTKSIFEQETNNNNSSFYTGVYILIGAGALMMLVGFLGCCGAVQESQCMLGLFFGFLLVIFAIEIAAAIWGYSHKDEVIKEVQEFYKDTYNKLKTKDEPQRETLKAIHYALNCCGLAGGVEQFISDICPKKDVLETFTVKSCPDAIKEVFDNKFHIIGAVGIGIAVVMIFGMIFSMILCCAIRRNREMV

Target: TGF-β type II receptor (TβR2) (human (endogenous in HSF)) (UniProt P37173)
Test: co-IP; HSF lysed in RIPA buffer, pre-cleared, immunoprecipitation with anti-TβR1 or anti-TβR2 antibody and protein A/G PLUS-agarose at 4 °C overnight, washed four times with RIPA, Western blot; cells under normoxia or hypoxia (2% O2, 24 h), with CD9 siRNA or Ad-CD9 overexpression

binding: binds
Substance: tetraspanin CD9 (from UniProt P21926 1-228)
